One experiment concerns the target T1, mCherry-SNX32 (UniProt Q86XE0).
T1 sequence: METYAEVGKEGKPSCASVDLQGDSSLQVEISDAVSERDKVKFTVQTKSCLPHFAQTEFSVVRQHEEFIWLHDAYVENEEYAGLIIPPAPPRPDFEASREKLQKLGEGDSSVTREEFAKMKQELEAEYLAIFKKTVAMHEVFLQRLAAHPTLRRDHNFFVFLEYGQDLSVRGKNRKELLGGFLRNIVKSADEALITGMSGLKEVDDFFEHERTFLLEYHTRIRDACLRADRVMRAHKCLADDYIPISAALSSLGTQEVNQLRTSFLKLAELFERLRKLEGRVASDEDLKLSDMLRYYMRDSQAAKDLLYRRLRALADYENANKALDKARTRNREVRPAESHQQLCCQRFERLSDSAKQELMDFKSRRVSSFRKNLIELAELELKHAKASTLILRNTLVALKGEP
As to the kind of experiment: co-IP; mCherry nanobody-based immunoprecipitation (mCBP-IP): GST-tagged mCBP on glutathione sepharose beads incubated with U87MG cell extracts overexpressing mCherry-tagged SNX proteins; endogenous BSG detected by immunoblot.

A further experiment addresses T2, mCherry-SNX6 (UniProt Q9UNH7).
T2 sequence: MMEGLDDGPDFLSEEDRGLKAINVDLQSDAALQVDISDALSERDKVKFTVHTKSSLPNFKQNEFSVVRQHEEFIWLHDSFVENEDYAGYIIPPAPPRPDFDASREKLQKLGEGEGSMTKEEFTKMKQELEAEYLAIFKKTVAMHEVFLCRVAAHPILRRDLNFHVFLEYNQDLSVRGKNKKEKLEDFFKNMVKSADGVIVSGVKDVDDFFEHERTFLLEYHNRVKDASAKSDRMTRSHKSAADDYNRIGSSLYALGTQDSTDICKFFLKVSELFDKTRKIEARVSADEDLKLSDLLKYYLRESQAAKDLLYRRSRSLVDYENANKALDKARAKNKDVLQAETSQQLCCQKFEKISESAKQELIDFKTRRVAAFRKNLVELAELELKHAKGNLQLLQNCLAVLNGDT
The experiment is described as above.

For a further experiment, the target named is T3, His-SNX32ΔC (UniProt Q86XE0).
T3 sequence: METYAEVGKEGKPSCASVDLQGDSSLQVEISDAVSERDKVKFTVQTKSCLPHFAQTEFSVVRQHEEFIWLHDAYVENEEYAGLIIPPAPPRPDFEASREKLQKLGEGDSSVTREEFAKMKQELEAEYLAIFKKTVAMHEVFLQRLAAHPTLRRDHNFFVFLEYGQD
As to the kind of experiment: pull-down; 20 µg of His SNX32ΔC bound to Ni-NTA beads, incubated with membrane-enriched HeLa cell lysate for 2 hr at 4°C; SDS-PAGE and immunoblot; only the target purified.

Another experiment addresses T4, GFP-SNX32 F131D (UniProt Q86XE0).
T4 sequence: T1 sequence with F131D
As to the kind of experiment: co-IP; GBP-IP of GFP-tagged SNX proteins from lysates of transfected cells (HeLa by the text; HEK293T by the legends of Figure 6A, C and I; the legend of Figure 6I also says GFP trap); endogenous TfR, CIMPR, SNX1 or BSG detected by immunoblot; values are the ratio of prey to GFP band intensity.

Another experiment concerns the target T5, GFP-SNX32 (UniProt Q86XE0).
T5 sequence: T1 sequence
Described as above.

Positions count from the first letter of the chain named. These are yes or no findings as the source states them, for the method shown. Binding seen in cells or lysates may run through a third protein. For some assays here: Binding calls can cover weak binding; strength is not graded here. For some assays here: Tags and fused reporters may be left off the sequences shown.

As for “Basigin (BSG) (from UniProt P35613-2) (receptor)”, the binding result with mCherry-SNX32 is “binds”; with mCherry-SNX6, “no binding”; in the experiment with His-SNX32ΔC it was “binds”; with GFP-SNX32 F131D, “no binding”; with GFP-SNX32 it was “binds”.
